For two molecules, binding results are on record in PMC11334333.

The chains behind the UniProt entries cited, without tags or fusion partners.
UniProt O43491: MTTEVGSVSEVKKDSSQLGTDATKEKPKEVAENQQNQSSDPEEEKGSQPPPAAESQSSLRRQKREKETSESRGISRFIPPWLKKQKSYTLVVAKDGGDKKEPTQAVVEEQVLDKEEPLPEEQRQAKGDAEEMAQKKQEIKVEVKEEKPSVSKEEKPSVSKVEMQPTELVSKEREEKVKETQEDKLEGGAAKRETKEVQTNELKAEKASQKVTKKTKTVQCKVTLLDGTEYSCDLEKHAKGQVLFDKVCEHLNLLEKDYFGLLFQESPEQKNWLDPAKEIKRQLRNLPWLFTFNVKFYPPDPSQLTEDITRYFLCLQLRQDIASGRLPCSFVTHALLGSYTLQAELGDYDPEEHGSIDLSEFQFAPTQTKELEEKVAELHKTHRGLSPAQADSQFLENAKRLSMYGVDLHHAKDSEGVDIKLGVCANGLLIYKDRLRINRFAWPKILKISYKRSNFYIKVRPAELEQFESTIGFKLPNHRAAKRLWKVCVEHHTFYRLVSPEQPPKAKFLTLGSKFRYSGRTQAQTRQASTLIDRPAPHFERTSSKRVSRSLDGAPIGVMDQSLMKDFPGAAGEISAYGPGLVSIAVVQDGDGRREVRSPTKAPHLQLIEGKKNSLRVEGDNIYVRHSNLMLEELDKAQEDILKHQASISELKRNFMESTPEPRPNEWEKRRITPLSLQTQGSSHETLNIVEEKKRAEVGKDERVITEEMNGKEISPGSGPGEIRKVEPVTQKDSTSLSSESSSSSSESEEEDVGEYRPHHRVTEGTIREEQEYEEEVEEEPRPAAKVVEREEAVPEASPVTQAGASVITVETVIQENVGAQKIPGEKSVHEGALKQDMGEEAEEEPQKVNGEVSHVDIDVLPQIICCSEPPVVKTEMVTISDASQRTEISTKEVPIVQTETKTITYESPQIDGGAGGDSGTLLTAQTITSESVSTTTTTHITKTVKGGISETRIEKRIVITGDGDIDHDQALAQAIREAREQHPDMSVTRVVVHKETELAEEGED

This experiment has as its target mCherry-4.1G (UniProt O43491). In words: co-IP; extracts of co-transfected HEK293 cells in IP Lysis/Wash Buffer (0.025 M Tris, 0.15 M NaCl, 0.001 M EDTA, 1% NP40, 5% glycerol, pH 7.4); RFP-Trap (anti-mCherry) magnetic agarose beads overnight at 4°C; blots with anti-GFP and anti-mCherry.

Results are given in words; binding and its absence hold for the method and conditions named. Binding seen in cells or lysates may run through a third protein. Some results given as binding are weak or reduced against the parent protein; the word gives no strength. Where a sequence is shown, tags or fusion partners need not be part of it.

B1: TMEM24-eGFP (protein, UniProt O14523 1-706)
chain: MDPGWGQRDVGWAALLILFAASLLTVFAWLLQYARGLWLARARGDRGPGPALAGEPAGSLRELGVWRSLLRLRATRAGAAEEPGVRGLLASLFAFKSFRENWQRAWVRALNEQACRNGSSIQIAFEEVPQLPPRASISHVTCVDQSEHTMVLRCQLSAEEVRFPVSVTQQSPAAVSMETYHVTLTLPPTQLEVNLEEIPGEGLLISWAFTDRPDLSLTVLPKLQARERGEEQVELSTIEELIKDAIVSTQPAMMVNLRACSAPGGLVPSEKPPMMPQAQPAIPRPNRLFLRQLRASHLGNELEGTEELCCVAELDNPMQQKWTKPARAGSEVEWTEDLALDLGPQSRELTLKVLRSSSCGDTELLGQATLPVGSPSRPLSRRQLCPLTPGPGKALGPAATMAVELHYEEGSPRNLGTPTSSTPRPSITPTKKIELDRTIMPDGTIVTTVTTVQSRPRIDGKLDSPSRSPSKVEVTEKTTTVLSESSGPSNTSHSSSRDSHLSNGLDPVAETAIRQLTEPSGRVAKKTPTKRSTLIISGVSKVPIAQDELALSLGYAASLEASVQDDAGTSGGPSSPPSDPPAMSPGPLDALSSPTSVQEADETTRSDISERPSVDDIESETGSTGALETRSLKDHKVSFLRSGTKLIFRRRPRQKEAGLSQSHDDLSNATATPSVRKKAGSFSRRLIKRFSFKSKPKANGNPSPQL
Regarding B1, the binding result was “binds”.

B2: TMEM24(I536A)-eGFP (protein, UniProt O14523 1-706)
chain: MDPGWGQRDVGWAALLILFAASLLTVFAWLLQYARGLWLARARGDRGPGPALAGEPAGSLRELGVWRSLLRLRATRAGAAEEPGVRGLLASLFAFKSFRENWQRAWVRALNEQACRNGSSIQIAFEEVPQLPPRASISHVTCVDQSEHTMVLRCQLSAEEVRFPVSVTQQSPAAVSMETYHVTLTLPPTQLEVNLEEIPGEGLLISWAFTDRPDLSLTVLPKLQARERGEEQVELSTIEELIKDAIVSTQPAMMVNLRACSAPGGLVPSEKPPMMPQAQPAIPRPNRLFLRQLRASHLGNELEGTEELCCVAELDNPMQQKWTKPARAGSEVEWTEDLALDLGPQSRELTLKVLRSSSCGDTELLGQATLPVGSPSRPLSRRQLCPLTPGPGKALGPAATMAVELHYEEGSPRNLGTPTSSTPRPSITPTKKIELDRTIMPDGTIVTTVTTVQSRPRIDGKLDSPSRSPSKVEVTEKTTTVLSESSGPSNTSHSSSRDSHLSNGLDPVAETAIRQLTEPSGRVAKKTPTKRSTLIASGVSKVPIAQDELALSLGYAASLEASVQDDAGTSGGPSSPPSDPPAMSPGPLDALSSPTSVQEADETTRSDISERPSVDDIESETGSTGALETRSLKDHKVSFLRSGTKLIFRRRPRQKEAGLSQSHDDLSNATATPSVRKKAGSFSRRLIKRFSFKSKPKANGNPSPQL
Consider B2, for which the binding result is “no binding”.
